Results reported in patent US20140274766A1, “METHODS OF USING F-SPONDIN AS A BIOMARKER FOR CARTILAGE DEGENERATIVE CONDITIONS AND BONE DISEASES” (priority 2009, published 2014).
Some results were stated once for a whole list of compounds, not compound by compound.

B1: FGF-18: growth factor (protein, UniProt O76093 28-207, looked up)
Fibroblast growth factor 18: EENVDFRIHVENQTRARDDVSRKQLRLYQLYSRTSGKHIQVLGRRISARGEDGDKYAQLLVETDTFGSQVRIKGKETEFYLCMNRKGKLVGKPDGTSKECVFIEKVLENNYTALMSAKYSGWYVGFTKKGRPRKGPKTRENQQDVHFMKRYPKGQPELQKPFKYTTVTKRSRRIRPTHPA

System: Human OA chondrocytes
Assay: Growth factor effect on F-spondin expression in human OA chondrocytes (QPCR)
Format: cell-based
Conditions: 24 h, serum starved; Retinol 100 nM, TGF-β1 2 ng/ml, FGF basic 25 ng/ml, FGF-18 100 ng/ml

Row | Molecule | enhancement of expression of F-spondin [fold]
1 | TGF-β1: Transforming growth factor-beta 1 | 1.5 to 3
2 | B1 | 1.5 to 3
